Test results published in PubChem BioAssay AID662 (National Center for Advancing Translational Sciences (NCATS), 2007).
Values joined by “and” are separate entries in the source; they are usually repeats but may differ in a detail not shown here. Identical values can stand only once. This is one part of the list. These are further read-outs of the screen, such as a control signal, another cell line or another target. No call is given for them. Compounds called inactive in the main read-out are mostly missing here. The note in brackets gives the kind of curve behind each potency; many fits are weak.

Assay: Cell signaling CRE-BLA (Fsk stim)
Conditions: CHO CRE-bla reporter (cAMP response element driving beta-lactamase), forskolin EC10, beta-lactamase ratio; measured here: 460 nm blue channel
Procedure, shortened: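 Modulation of forskolin-driven signalling is measured in CHO cells carrying a CRE-controlled beta-lactamase reporter. Cells are stimulated with EC10 NKH 477 in the presence of titrated compound for 3 h at 37 °C, then loaded with CCF4 for 2 h at room temperature.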

Structure (SMILES)	AC50
COCCCn1c(-c2ccco2)nc2ccccc2c1=O	12.6 µM [rising, partial curve]
O=C(OCC#CCSc1nnc(-c2ccncc2)o1)c1cccs1	0.398 µM [rising, partial curve, poor fit]
O=C(Nc1ccc(S(=O)(=O)Nc2cnc3ccccc3n2)cc1)c1ccc(Br)o1	3.98 µM [rising, full curve]
COc1ccccc1C(=O)N(Cc1nc(-c2ccc(Cl)cc2)no1)C(C)C	15.8 µM [falling, partial curve]
Cc1cc(C)n2nc(SCC3COc4ccccc4O3)nc2n1 (stereo not drawn)	12.6 µM [rising, single point]
COc1ccc(-c2cc(C(F)(F)F)n3ncc(C(=O)NCc4ccco4)c3n2)cc1	12.6 µM [rising, partial curve]
COc1ccc(-c2oc3ncn(CCN4CCOCC4)c(=N)c3c2-c2ccc(OC)cc2)cc1	0.501 µM [rising, partial curve]
O=c1cc(-c2ccc(O)c(O)c2)oc2cc(O)cc(O)c12	12.6 µM [falling, single point] and 7.94 µM [falling, partial curve]
Cc1ccc(-c2nc(C#N)c(NCc3ccco3)o2)cc1	15.8 µM [rising, single point]
CCCCS(=O)(=O)/C=C\C=C/S(=O)(=O)CCCC	1.58 µM [falling, full curve]
CN(C)c1ccc(-c2cc(NCc3ccccc3)ncn2)cc1	5.01 µM [rising, partial curve]
COc1ccc(-n2nc(C(=O)NCC(=O)NCC3CCCO3)c3ccccc3c2=O)cc1 (stereo not drawn)	3.16 µM [falling, partial curve, poor fit]
Cc1ccccc1S(=O)(=O)NC1OC(=O)C(Cl)=C1Cl (stereo not drawn)	0.0794 µM [falling, partial curve, poor fit]
Cc1cccc2cc(C#N)c(NCCCn3ccnc3)nc12	12.6 µM [rising, single point]
CN1CCN(C(=O)CN(Cc2ccc(Cl)cc2)S(C)(=O)=O)CC1	5.01 µM [falling, full curve, poor fit]
O=C(CSc1nc2c(cnn2-c2ccccc2)c(=O)[nH]1)N1CCOCC1	0.00398 µM [falling, full curve, poor fit]
CCCCOC(=O)C1=C(C)Nc2ncnn2C1c1ccc(OCC)c(OC)c1 (stereo not drawn)	25.1 µM [rising, single point]
CCC(C)(C)n1nnnc1C(c1ccc2ncccc2c1)N1CCN2CCCC2C1 (stereo not drawn)	0.794 µM [falling, full curve]
Clc1cccc(CSc2nnc([C@@H]3CCCN3)o2)c1	0.00316 µM [falling, full curve, poor fit]
COc1cccc(-n2nnc3c(=O)n(Cc4c(F)cccc4Cl)cnc32)c1	1 µM [rising, partial curve]
O=C1C2CCCN2C(c2ccc(Cl)cc2)N1c1nccs1 (stereo not drawn)	5.01 µM [falling, single point]
NCCCCNCCCN	0.01 µM [falling, full curve, poor fit]
CC(=O)Nc1sc(C)c(C)c1C(=O)OC1CCOC1=O (stereo not drawn)	3.16 µM [rising, partial curve]

Structure (SMILES)	AC50
CC(C)c1ccccc1N1CC(C(=O)O)CC1=O (stereo not drawn)	0.00398 µM [falling, full curve]
Cc1ccccc1-c1ccc2ncnc(N3CCOCC3)c2c1	2.51 µM [falling, single point]
CCC1SC(=NC(=O)c2ccc(Cl)c(Cl)c2)NC1=O (stereo not drawn)	1 µM [rising, partial curve]
O=c1c2[nH]c3ccc(F)cc3c2ncn1CCCn1ccnc1	6.31 µM [rising, single point]
Cn1c(=O)c2c(nc(N3CCOCC3)n2CC(=O)C23CC4CC(CC(C4)C2)C3)n(C)c1=O	25.1 µM [rising, single point]
C=C1CC[C@@H](O)C/C1=C/C=C1\CCC[C@]2(C)[C@@H]1CC[C@H]2[C@@H](C)/C=C\[C@@H](C)C(C)C	12.6 µM [falling, single point]
O=C(OC[C@@H](O)CO)c1ccccc1Nc1ccnc2cc(Cl)ccc12	10 µM [rising, partial curve]
CS(=O)(=O)Nc1cccc(-c2nc(N3CCOCC3)c3ccccc3n2)c1	3.16 µM [rising, full curve]
CCN(CC)Cc1csc(C(N)=O)c1	0.0158 µM [falling, full curve]
COCc1nn2c(N)c(C#N)cnc2c1-c1ccccc1	25.1 µM [rising, single point]
Cc1cc2cc(C)c3nnc(SCC(=O)NCc4ccco4)n3c2cc1C	20 µM [rising, single point]
Nc1ccccc1OCCOCCOc1ccccc1N	0.00398 µM [falling, full curve, poor fit]
COc1cccc(CN2CCN(C(=O)c3cccc(F)c3)CC2)c1	0.00316 µM [falling, full curve]
CCOC(=O)c1c(C)n(C)c2ccc(OCC(N)=O)cc12	10 µM [rising, partial curve]
CS(=O)(=O)N1CCCC(C(=O)NCc2ccc(F)cc2Cl)C1 (stereo not drawn)	3.98 µM [rising, partial curve]
N#C/C(=C\c1cccs1)Sc1nc2ccccc2s1	12.6 µM [rising, partial curve]
CC[C@@H]1CN2CCc3cc(OC)c(OC)cc3[C@H]2C[C@@H]1C[C@@H]1NCCc2cc(OC)c(OC)cc21	12.6 µM [falling, full curve]
C=CCNC(=O)c1ccccc1NC(=O)c1ccccc1	0.00316 µM [falling, full curve, poor fit]
COc1cc(-c2nnc3sc(C4CCCCC4)nn23)cc(OC)c1OC	1.26 µM [rising, partial curve]
COc1cccc(Nc2ncnc3c2cnn3C)c1	10 µM [rising, partial curve]
Cc1c(O)ccc2c3c(c(=O)oc12)CCCC3	10 µM [rising, single point]
O=C(c1ccco1)N1CCC2(CCN(Cc3cc(C(F)(F)F)cc(C(F)(F)F)c3)CC2)CC1	15.8 µM [rising, partial curve, poor fit]
CC(=O)N1CCN(c2ccc(NC(=O)c3ccc(C(C)(C)C)cc3)cc2)CC1	25.1 µM [falling, single point]

Structure (SMILES)	AC50
CCc1ccc(N2CCCn3c2nc2c3c(=O)n(CCN3CCOCC3)c(=O)n2C)cc1	0.00316 µM [falling, full curve, poor fit]
N#CCCn1c(=O)c(-c2ccc(Cl)cc2)nc2cnc(Nc3ccccc3)nc21	2 µM [rising, full curve]
Cc1nc(NCCCn2ccnc2)c2oc3ccccc3c2n1	12.6 µM [rising, partial curve]
O=C(O)C1(C(=O)O)CCN(S(=O)(=O)c2ccccc2)CC1	3.98 µM [rising, partial curve, poor fit]
COc1cccc(-c2nc(NCc3cccs3)c3ccccc3n2)c1	7.94 µM [falling, single point]
Cc1ccccc1Cn1nc(C)c(NC(=O)c2cc3nc(-c4ccco4)cc(C(F)(F)F)n3n2)c1C	2.51 µM [rising, full curve]
COc1ccc(Oc2ncc3nc(C)c(=O)n(Cc4cccs4)c3n2)cc1	10 µM [rising, partial curve]
CCCn1c(SCC(=O)Nc2cc(C)on2)nc2c1c(=O)n(C)c(=O)n2C	12.6 µM [falling, single point]
COc1ccc(NC(=O)Nc2nnc(N3CCC(C)CC3)s2)cc1OC	3.98 µM [rising, single point]
Cc1cc(O)cc(O)c1-c1onc(C(F)(F)F)c1-c1cscn1	15.8 µM [falling, partial curve]
COc1cccc(C(=O)CSc2nnc(-c3cc(OC)c(OC)c(OC)c3)o2)c1	7.94 µM [rising, partial curve]
CCOC(=O)c1c(C)n(C)c2ccc(OCC(O)Cn3nc(C)c(Br)c3C)cc12 (stereo not drawn)	15.8 µM [falling, single point]
c1ccc(C(c2nnnn2Cc2cccs2)N2CCN(C3CCCC3)CC2)cc1 (stereo not drawn)	0.01 µM [falling, full curve, poor fit]
O=C(Nc1cccc(-c2cn3cccnc3n2)c1)c1ccco1	0.01 µM [falling, full curve]
COc1ncc2nc(-c3ccccc3)c(=O)n(Cc3cccs3)c2n1	12.6 µM [rising, partial curve]
CCC/C=C(\CCC)C(NS(=O)(=O)c1ccc(C(F)(F)F)cc1)c1ccc(C(=O)OC)cc1 (stereo not drawn)	2.51 µM [rising, full curve]
Oc1c(C(c2cccs2)N2CCC3(CC2)OCCO3)sc2ncnn12 (stereo not drawn)	12.6 µM [rising, partial curve]
CC(=O)Nc1nc(=S)n(-c2ccccc2)[nH]1	0.316 µM [rising, partial curve]
COc1ccc2cc(CCNC(=O)CC(C)(C)C)c(=O)[nH]c2c1	3.16 µM [falling, single point]
COCCn1c(-c2ccco2)nc2nc3ccccc3nc21	10 µM [rising, partial curve]
Cc1ccc(NC(=O)CSc2nccc(=O)[nH]2)c(S(=O)(=O)N2CCOCC2)c1	3.16 µM [rising, single point]
O=C(Nc1nnc(N2CCCCCC2)s1)c1cc(-c2ccc(Br)cc2)on1	3.98 µM [rising, single point]
